Measurements reported in PubChem BioAssay AID2685 (National Center for Advancing Translational Sciences (NCATS), 2010).
This is one part of the list. Shown are side measurements of this screen, not its main read-out; they come without a call. Most of these compounds were active or inconclusive in the main read-out, so they are no random draw. Potencies come from curve fits of mixed quality, noted in brackets.

Assay: qHTS Assay for Lipid Storage Modulators in Drosophila S3 Cells;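 on cell number change: cells counted by Cell Tracker Red CMTPX staining in the red channel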
Settings: BODIPY lipid droplet fluorescence, 18-24 h; for cell number change: measured here: cell count max response, cells fed with added oleic acid
Outline: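 Drosophila S3 cells loaded with oleic acid (400 uM, as added) and compounds at several concentrations; lipid droplets imaged by 488-nm laser-scanning cytometry, 500–530 nm intensity and object ratio to cell channel. Percent activity normalized to 20 uM Triacsin C.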

[1] = measured here: cell number channel AC50, cells fed with added oleic acid
[2] = measured here: lipid fluorescence (Fed channel) AC50, cells fed with added oleic acid

Q: Which cell number change does the source give for `COc1ccccc1C(=O)C(O)c1ccccc1OC` (configuration not stated) here?
A: Its cell number change is -149%.

Q: What about the AC50 [1] of the same compound?
A: The AC50 was 25.9 µM [falling, partial curve].

Q: And the AC50 [2]?
A: The AC50 was 29.1 µM [falling, single point].

Q: Which cell number change does the source give for `CC(C)[C@H](NC(=O)NCc1ccco1)C(=O)O` here?
A: Its cell number change is -14.1%.

Q: What does the source list for `Cn1c(/C(C#N)=C(\O)c2ccc(Br)s2)nc2ccccc21`?
A: cell number change: -4.94%; AC50 [2]: 0.651 µM [rising, single point]

Q: Which results are given for `COc1ccc(-n2ncc3c2CC(C)(C)CC3NC(=O)c2cn[nH]c2)cc1` (configuration not stated)?
A: cell number change: 9.63%; AC50 [2]: 7.31 µM [falling, single point]

Q: With `O=C1CC(NS(=O)(=O)c2ccc([N+](=O)[O-])cc2)CN1c1ccc(Cl)cc1` (configuration not stated) as the compound, how does the cell number change read?
A: The cell number change was 24.8%.

Q: And the AC50 [1]?
A: The AC50 was 2.91 µM [rising, full curve, poor fit].

Q: Which cell number change does the source give for `CC1(C)CC2CC(C)(CN2Cc2c(O)ccc3ccccc23)C1` (configuration not stated) here?
A: Its cell number change is -6.02%.

Q: And the AC50 [2]?
A: The AC50 was 6.51 µM [rising, single point].

Q: With `Cc1cc(C)n(S(=O)(=O)c2ccc(C(C)(C)C)cc2)n1` as the compound, how does the cell number change read?
A: Its cell number change is -56.6%.

Q: What about the AC50 [1] of the same compound?
A: The AC50 was 29.1 µM [falling, single point].

Q: And the AC50 [2]?
A: Its AC50 is 6.51 µM [falling, single point].

Q: Which results are given for `COCCCNC(=O)c1cn(CCOC)c(=O)c2c1c1ccccc1n2C`?
A: cell number change: 15.3%; AC50 [1]: 5.17 µM [rising, single point]; AC50 [2]: 6.51 µM [rising, single point]

Q: Which results are given for `O=C1NCC(c2ccccc2)C1C(=O)N/N=C\c1ccc(-c2ccc(Cl)c(Cl)c2)o1` (configuration not stated)?
A: cell number change: -34.1%; AC50 [1]: 29.1 µM [falling, single point]

Q: For `COc1ccc(C(=O)O/N=C(\N)Cc2ccc([N+](=O)[O-])cc2)c(OC)c1`, which cell number change is on record?
A: Its cell number change is 21.8%.

Q: And the AC50 [2]?
A: Its AC50 is 14.6 µM [rising, single point].

Q: Which results are given for `CC(C)(C)OC(=O)[C@H](Cc1ccccc1)NC(=O)c1[nH]cnc1C(=O)N[C@@H](Cc1ccccc1)C(=O)OCc1ccccc1`?
A: cell number change: 54.5%; AC50 [1]: 16.4 µM [rising, single point]; AC50 [2]: 4.61 µM [falling, full curve]

Q: For `NNc1ccccc1C(F)(F)F`, which cell number change is on record?
A: The cell number change was -33.2%.

Q: Which cell number change does the source give for `COc1ccc(C(=O)N(CN2CCCC2=O)c2nccs2)cc1OC` here?
A: The cell number change was 20.4%.

Q: And the AC50 [1]?
A: The AC50 was 0.366 µM [rising, full curve, poor fit].

Q: Which cell number change does the source give for `COc1ccccc1CNC(=O)CN1CCN(S(=O)(=O)c2cccs2)CC1` here?
A: Its cell number change is -25.6%.

Q: What about the AC50 [1] of the same compound?
A: Its AC50 is 2.59 µM [rising, single point].

Q: What about the AC50 [2] of the same compound?
A: The AC50 was 32.6 µM [falling, single point].

Q: Which cell number change does the source give for `COc1cccc(CNC(=O)CCC2CCCN(C(=O)c3cscn3)C2)c1` (configuration not stated) here?
A: The cell number change was 2.31%.

Q: And the AC50 [2]?
A: Its AC50 is 0.0651 µM [rising, full curve, poor fit].

Q: For `CC1CC(C)CN(c2cc(=O)n(Cc3ccc(F)cc3)c(=O)[nH]2)C1` (configuration not stated), which cell number change is on record?
A: Its cell number change is 7.76%.

Q: Which results are given for `CCCCNC(=O)c1ccc(NS(=O)(=O)c2ccc3[nH]c(=O)[nH]c3c2)cc1`?
A: cell number change: -13.5%; AC50 [2]: 0.58 µM [falling, single point]

Q: With `O=C1CCCCC1Sc1nnc(Nc2ccccc2)s1` (configuration not stated) as the compound, how does the cell number change read?
A: Its cell number change is 18.8%.

Q: What about the AC50 [1] of the same compound?
A: Its AC50 is 0.164 µM [falling, full curve].

Q: For `Cc1ccc(C(=O)Nc2nc(COc3ccccc3)cs2)s1`, which cell number change is on record?
A: Its cell number change is 62.5%.

Q: And the AC50 [1]?
A: Its AC50 is 16.4 µM [rising, partial curve, poor fit].

Q: What about the AC50 [2] of the same compound?
A: The AC50 was 20.6 µM [rising, partial curve].

Q: Which cell number change does the source give for `CCCCCCSc1cc(-c2nc3cnccn3c2NCc2ccccc2)ccc1OC` here?
A: Its cell number change is -14.4%.

Q: And the AC50 [2]?
A: The AC50 was 29.1 µM [rising, single point].

Q: For `CCc1c(C)sc(NC(=S)Nc2nc(C)cc(C)n2)c1C(=O)OC`, which cell number change is on record?
A: The cell number change was -44.4%.

Q: With `CCCn1c(=O)c(C(=O)NCc2ccccn2)c(O)c2ccccc21` as the compound, how does the cell number change read?
A: Its cell number change is 62.5%.

Q: And the AC50 [1]?
A: Its AC50 is 2.31 µM [rising, full curve, poor fit].

Q: And the AC50 [2]?
A: The AC50 was 0.058 µM [rising, full curve, poor fit].

Q: Which cell number change does the source give for `CCOC(=O)Cn1c(=NC(=O)CC)sc2c(C)cc(C)cc21` here?
A: The cell number change was 8.3%.

Q: And the AC50 [2]?
A: The AC50 was 6.51 µM [rising, single point].

Q: With `CCN(Cc1ccc2c(c1)OCO2)C(=O)/C=C/c1cccc(Br)c1` as the compound, how does the cell number change read?
A: Its cell number change is 4.5%.

Q: Which cell number change does the source give for `CCCCc1nnc(NC(=O)COC)s1` here?
A: The cell number change was -0.955%.

Q: And the AC50 [1]?
A: Its AC50 is 0.00461 µM [falling, full curve, poor fit].

Q: What about the AC50 [2] of the same compound?
A: The AC50 was 0.00461 µM [falling, full curve, poor fit].

Q: What does the source list for `CNc1nc(OCCNC(=O)Nc2ccccc2)nc(N2CCOCC2)n1`?
A: AC50 [1]: 0.92 µM [rising, full curve]; AC50 [2]: 6.51 µM [falling, full curve]

Q: With `O=C(CN1C(=O)C2C3C=CC(C3)C2C1=O)OCC(=O)c1ccc([N+](=O)[O-])cc1` (configuration not stated) as the compound, how does the cell number change read?
A: The cell number change was -20.6%.

Q: With `COc1ccc(CC(=O)Nc2ccc(-c3noc(-c4ccccc4OC)n3)cc2)cc1` as the compound, how does the cell number change read?
A: Its cell number change is 23.4%.

Q: And the AC50 [1]?
A: Its AC50 is 0.411 µM [rising, partial curve, poor fit].

Q: And the AC50 [2]?
A: The AC50 was 0.411 µM [rising, full curve].

Q: With `Cn1c(CCN2CCN(c3ccc(F)cc3)CC2)nc2cc(NC(=O)c3ccco3)ccc21` as the compound, how does the cell number change read?
A: Its cell number change is 30.1%.

Q: What about the AC50 [1] of the same compound?
A: The AC50 was 20.6 µM [rising, single point].

Q: With `C1CCCCCC2(CCCCC1)OCC(CN1CCOCC1)O2` (configuration not stated) as the compound, how does the cell number change read?
A: The cell number change was 0.0359%.

Q: Which cell number change does the source give for `C=CCSc1nnc(-c2c[nH]c3ccccc23)n1CCOC` here?
A: Its cell number change is -16.1%.

Q: What about the AC50 [2] of the same compound?
A: Its AC50 is 0.0731 µM [falling, full curve, poor fit].

Q: Which cell number change does the source give for `C#CCOCCOCCOCCNc1nc(N2CCN(C(=O)Cn3cc(CCCN=C(N)N)nn3)CC2)nc(N2CCN(C(=O)[C@H](CCCCN)n3cc(CCC(=O)O)nn3)CC2)n1` here?
A: Its cell number change is 22%.

Q: Which cell number change does the source give for `CC(=O)N[C@@H]1[C@@H](O)[C@@H]2OC(c3ccccc3)OC[C@H]2O[C@@H]1N=[N+]=[N-]` (some centres not stated) here?
A: Its cell number change is 2.2%.

Q: What about the AC50 [2] of the same compound?
A: Its AC50 is 20.6 µM [rising, single point].

Q: With `Cc1cccc(C(=O)Oc2ccc(/C=N/O)cc2)c1` as the compound, how does the cell number change read?
A: The cell number change was -44.4%.

Q: What about the AC50 [1] of the same compound?
A: The AC50 was 29.1 µM [falling, single point].

Q: What about the AC50 [2] of the same compound?
A: The AC50 was 29.1 µM [falling, single point].

Q: For `O=C(Oc1ccccc1[N+](=O)[O-])c1cccnc1`, which cell number change is on record?
A: Its cell number change is -19.8%.

Q: For `COc1ccc(NC(=O)CSc2nnc3n2CCCCC3)cc1`, which cell number change is on record?
A: The cell number change was 31.2%.

Q: What about the AC50 [1] of the same compound?
A: Its AC50 is 5.8 µM [rising, full curve, poor fit].

Q: With `CSc1ncc(CN2CCCC(C(=O)Nc3ccc(-c4ccco4)cc3)C2)cn1` (configuration not stated) as the compound, how does the cell number change read?
A: The cell number change was -13.4%.

Q: Which results are given for `Cc1cccc(CC2CC(=O)N(c3ccc(C)cc3Br)C2=O)c1` (configuration not stated)?
A: cell number change: -32%; AC50 [1]: 14.6 µM [falling, single point]; AC50 [2]: 0.58 µM [rising, single point]
